The values that follow come from the supplement of paper PMC6411743.

Amino acid sequences for entries named in this document (tags omitted). A change or cut given only in a name is not applied to a line headed by its entry.
UniProt Q9NV56, whole entry: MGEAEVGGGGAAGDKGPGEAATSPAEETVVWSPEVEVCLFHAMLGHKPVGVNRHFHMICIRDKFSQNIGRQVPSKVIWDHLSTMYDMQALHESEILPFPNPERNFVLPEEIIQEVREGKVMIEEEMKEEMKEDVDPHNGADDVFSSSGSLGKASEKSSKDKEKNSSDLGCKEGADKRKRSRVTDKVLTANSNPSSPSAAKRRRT
UniProt Q9NZR1: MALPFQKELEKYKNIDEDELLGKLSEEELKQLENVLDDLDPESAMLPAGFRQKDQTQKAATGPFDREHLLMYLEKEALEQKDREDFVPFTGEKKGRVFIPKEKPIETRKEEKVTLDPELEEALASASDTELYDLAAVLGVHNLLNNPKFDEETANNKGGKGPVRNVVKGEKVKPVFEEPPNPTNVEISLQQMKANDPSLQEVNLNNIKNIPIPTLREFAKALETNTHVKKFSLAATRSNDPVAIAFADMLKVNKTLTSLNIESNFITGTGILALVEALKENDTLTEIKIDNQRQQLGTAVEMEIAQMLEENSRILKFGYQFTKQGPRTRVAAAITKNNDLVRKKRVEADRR
UniProt Q9NR31: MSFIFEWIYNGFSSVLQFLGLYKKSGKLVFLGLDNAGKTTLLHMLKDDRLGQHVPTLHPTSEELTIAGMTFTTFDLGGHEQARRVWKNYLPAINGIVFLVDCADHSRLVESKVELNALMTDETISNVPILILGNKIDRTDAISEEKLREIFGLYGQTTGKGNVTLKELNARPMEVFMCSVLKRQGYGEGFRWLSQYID
UniProt Q9NYM9: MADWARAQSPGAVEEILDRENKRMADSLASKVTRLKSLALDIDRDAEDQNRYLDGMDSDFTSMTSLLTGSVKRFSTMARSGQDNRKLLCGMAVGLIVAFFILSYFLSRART
UniProt Q9P016: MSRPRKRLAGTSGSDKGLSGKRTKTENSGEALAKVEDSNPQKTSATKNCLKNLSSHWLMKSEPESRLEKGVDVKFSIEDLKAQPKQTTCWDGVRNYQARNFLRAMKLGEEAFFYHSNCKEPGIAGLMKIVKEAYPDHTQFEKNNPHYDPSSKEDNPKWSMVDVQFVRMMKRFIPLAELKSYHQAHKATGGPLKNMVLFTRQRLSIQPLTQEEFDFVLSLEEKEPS
UniProt Q9UBN7: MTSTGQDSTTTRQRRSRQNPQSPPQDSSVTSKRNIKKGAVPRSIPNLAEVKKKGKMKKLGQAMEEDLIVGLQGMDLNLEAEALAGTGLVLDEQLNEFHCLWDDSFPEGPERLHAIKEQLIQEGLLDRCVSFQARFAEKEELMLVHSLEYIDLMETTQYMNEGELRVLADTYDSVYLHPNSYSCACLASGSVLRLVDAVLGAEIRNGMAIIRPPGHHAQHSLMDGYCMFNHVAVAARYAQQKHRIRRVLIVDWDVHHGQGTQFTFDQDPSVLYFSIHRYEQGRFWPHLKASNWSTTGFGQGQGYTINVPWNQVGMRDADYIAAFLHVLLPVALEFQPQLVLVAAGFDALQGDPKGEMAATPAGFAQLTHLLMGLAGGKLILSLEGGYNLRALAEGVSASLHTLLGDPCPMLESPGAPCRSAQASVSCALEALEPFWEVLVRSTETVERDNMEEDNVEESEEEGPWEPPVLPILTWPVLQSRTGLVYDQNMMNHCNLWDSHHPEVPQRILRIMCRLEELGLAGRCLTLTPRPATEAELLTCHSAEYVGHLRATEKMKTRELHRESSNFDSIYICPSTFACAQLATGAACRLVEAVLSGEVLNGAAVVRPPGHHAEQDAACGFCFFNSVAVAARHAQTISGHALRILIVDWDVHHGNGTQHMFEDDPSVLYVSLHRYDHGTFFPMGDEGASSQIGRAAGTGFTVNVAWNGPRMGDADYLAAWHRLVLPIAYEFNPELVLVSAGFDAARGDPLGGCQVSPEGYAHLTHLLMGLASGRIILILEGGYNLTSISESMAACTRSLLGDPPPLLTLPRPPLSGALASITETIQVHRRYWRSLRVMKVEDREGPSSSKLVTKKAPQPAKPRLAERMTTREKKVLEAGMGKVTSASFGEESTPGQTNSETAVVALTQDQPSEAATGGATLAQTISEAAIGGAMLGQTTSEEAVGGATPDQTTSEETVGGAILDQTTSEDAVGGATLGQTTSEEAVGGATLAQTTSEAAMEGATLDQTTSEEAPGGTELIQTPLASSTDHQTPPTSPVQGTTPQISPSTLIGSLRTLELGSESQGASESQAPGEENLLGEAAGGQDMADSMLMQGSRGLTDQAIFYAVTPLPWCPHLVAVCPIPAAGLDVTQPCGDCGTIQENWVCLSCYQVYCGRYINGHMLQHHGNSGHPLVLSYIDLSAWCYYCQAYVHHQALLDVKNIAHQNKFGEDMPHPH
UniProt Q9NQY0: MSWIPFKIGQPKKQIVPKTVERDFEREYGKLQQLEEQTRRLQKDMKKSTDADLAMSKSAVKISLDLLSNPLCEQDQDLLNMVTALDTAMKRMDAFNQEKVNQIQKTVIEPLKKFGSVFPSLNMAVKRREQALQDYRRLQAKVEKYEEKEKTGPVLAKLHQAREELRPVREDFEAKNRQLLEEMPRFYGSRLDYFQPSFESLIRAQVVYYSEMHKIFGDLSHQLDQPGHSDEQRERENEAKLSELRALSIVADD
UniProt Q9NW08: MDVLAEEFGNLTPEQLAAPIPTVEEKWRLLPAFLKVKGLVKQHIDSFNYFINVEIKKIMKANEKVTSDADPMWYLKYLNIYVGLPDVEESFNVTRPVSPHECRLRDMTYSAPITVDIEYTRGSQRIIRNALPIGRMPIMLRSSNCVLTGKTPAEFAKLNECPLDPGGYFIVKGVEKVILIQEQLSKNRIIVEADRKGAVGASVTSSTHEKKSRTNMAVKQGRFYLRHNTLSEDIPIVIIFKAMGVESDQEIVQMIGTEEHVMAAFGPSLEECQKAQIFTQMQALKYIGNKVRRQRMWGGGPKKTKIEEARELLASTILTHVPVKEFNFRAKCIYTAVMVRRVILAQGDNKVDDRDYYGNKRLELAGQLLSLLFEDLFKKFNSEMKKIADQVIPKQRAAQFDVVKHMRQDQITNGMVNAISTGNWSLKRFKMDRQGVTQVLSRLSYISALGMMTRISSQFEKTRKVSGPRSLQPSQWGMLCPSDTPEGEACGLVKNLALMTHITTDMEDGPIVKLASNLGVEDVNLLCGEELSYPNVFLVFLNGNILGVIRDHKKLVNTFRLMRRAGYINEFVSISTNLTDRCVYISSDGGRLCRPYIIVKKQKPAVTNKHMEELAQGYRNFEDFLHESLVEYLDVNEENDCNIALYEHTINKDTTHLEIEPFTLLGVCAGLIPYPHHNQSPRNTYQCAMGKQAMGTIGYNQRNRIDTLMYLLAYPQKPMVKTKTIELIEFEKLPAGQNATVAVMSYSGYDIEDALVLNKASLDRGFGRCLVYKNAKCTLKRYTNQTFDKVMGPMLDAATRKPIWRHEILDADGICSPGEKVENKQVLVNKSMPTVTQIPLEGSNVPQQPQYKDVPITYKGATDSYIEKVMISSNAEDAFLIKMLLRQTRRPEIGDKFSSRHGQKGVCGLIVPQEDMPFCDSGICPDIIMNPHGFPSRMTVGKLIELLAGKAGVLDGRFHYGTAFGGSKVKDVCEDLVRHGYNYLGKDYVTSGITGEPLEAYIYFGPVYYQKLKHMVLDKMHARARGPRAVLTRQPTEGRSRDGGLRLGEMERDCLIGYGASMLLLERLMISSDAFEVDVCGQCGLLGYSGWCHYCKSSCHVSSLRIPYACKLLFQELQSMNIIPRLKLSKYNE
UniProt Q9NX24: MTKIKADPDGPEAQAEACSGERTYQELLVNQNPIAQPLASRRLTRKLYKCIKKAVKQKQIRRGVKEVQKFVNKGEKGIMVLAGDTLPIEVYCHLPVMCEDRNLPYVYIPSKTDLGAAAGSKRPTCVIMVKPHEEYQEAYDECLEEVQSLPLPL
UniProt Q9NYY8: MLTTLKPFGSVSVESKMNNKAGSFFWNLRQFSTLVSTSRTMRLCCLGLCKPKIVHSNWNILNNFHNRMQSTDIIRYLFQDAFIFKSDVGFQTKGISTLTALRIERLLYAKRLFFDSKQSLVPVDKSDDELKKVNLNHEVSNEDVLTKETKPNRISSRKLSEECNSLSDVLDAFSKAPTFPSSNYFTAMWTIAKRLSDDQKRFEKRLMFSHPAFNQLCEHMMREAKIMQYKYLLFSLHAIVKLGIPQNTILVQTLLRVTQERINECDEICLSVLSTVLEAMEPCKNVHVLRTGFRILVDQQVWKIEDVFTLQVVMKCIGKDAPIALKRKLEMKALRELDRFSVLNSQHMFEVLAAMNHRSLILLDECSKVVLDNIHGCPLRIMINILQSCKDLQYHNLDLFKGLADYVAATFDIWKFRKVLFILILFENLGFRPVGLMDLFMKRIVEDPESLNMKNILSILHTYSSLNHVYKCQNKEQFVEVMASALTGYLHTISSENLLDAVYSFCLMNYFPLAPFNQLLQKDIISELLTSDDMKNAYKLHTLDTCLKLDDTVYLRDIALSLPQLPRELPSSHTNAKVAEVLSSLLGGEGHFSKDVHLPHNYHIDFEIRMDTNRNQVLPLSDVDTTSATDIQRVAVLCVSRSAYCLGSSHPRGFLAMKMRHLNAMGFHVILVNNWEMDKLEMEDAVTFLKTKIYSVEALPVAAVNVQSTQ
UniProt Q9NUP9: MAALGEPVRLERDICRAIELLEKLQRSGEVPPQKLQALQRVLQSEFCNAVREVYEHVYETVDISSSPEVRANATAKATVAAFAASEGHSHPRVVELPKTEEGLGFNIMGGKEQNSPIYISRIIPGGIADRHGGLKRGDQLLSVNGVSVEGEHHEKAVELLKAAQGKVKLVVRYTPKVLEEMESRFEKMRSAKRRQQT
UniProt Q9UBF6, whole entry: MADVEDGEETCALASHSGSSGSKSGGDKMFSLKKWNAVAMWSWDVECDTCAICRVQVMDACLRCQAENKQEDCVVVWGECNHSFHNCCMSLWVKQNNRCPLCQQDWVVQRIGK
UniProt Q9NR28: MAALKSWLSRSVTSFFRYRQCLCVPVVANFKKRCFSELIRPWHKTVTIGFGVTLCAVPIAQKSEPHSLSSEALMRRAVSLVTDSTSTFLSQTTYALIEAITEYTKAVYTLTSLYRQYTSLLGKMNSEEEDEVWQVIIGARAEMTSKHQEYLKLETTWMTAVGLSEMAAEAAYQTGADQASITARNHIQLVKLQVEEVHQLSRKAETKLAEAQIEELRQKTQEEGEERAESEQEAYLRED
UniProt Q9NWU2, whole entry: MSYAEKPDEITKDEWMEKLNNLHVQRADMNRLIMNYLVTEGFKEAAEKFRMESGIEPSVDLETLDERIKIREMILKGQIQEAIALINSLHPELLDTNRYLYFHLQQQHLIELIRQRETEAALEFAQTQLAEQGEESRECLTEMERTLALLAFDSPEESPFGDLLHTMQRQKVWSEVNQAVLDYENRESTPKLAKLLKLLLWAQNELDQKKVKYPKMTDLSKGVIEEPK
UniProt Q9NXN4: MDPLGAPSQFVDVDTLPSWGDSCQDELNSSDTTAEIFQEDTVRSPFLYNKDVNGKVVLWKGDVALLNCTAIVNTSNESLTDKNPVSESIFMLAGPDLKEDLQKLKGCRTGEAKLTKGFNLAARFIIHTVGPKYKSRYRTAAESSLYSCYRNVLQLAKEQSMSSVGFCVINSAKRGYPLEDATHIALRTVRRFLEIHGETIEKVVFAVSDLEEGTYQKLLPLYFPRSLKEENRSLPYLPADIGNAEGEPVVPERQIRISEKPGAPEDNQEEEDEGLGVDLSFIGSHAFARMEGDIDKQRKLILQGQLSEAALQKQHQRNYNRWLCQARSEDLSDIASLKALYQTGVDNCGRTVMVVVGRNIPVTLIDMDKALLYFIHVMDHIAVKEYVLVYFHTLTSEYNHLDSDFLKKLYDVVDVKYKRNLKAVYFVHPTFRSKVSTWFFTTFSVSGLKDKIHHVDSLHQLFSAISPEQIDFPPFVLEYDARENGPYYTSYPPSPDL
UniProt Q9NZZ3: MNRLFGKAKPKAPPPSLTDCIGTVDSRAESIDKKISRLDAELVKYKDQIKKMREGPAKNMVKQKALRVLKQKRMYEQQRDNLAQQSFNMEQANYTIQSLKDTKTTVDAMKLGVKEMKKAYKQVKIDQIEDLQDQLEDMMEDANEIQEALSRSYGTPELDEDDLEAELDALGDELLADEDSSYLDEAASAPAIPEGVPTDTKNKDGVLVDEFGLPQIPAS
UniProt Q9NS69: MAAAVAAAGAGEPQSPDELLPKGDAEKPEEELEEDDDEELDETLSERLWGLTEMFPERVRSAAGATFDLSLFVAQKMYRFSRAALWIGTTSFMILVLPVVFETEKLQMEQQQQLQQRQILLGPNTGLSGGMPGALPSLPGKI
UniProt Q9NVF7: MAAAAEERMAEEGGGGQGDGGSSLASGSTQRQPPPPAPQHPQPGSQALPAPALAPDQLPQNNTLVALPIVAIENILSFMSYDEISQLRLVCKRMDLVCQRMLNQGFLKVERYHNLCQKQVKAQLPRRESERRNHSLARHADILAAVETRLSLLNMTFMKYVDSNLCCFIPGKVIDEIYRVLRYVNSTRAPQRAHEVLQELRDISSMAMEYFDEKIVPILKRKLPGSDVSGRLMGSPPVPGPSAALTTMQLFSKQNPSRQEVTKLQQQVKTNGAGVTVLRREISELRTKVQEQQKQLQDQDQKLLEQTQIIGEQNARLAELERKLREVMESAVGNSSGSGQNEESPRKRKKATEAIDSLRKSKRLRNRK

± gives the standard deviation of the averaged measurements. Only a part is listed here, and it is no random draw. Most values lie at the level of the controls, where differences are scatter.

Compound in the first assay: Nc1ncnc2c1ncn2[C@@H]1O[C@H](COP(=O)(O)OP(=O)(O)NP(=O)(O)O)[C@@H](O)[C@H]1O [adenylyl imidodiphosphate]
Nature of the assay: NP40-soluble protein abundance relative to vehicle (solubility fold change) (ratio); higher = more soluble protein in presence of AMP-PNP. The conditions noted are these: concentration: 0.1mM. A digest of the protocol: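 Crude Jurkat lysate, prepared by Dounce homogenisation, was exposed to eight concentrations from 0.1 to 10 mM for 10 min at room temperature and then 3 min at 37 °C. Solubilisation used 0.8% NP40 with benzonase for 60 min at 4 °C, followed by ultracentrifugation and TMT labelling of the supernatant for LC-MS/MS. After vsn normalisation of intensities, each value is the fold change against the detergent-processed vehicle within each replicate, across three independent experiments.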
As to UniProt Q9NRX2 and related entries, the NP40-soluble protein abundance is 1.05 ± 0.014.
Still for that read-out and setting: next, UniProt Q9NQX3 and related entries: 0.9932 ± 0.0089; UniProt Q9NZQ3 and related entries: 1.04 ± 0.032.
Same read-out and setting: next, UniProt Q9NV56: 0.994 ± 0.058.
Still for that read-out and setting: under DDX21 (UniProt Q9NR30) stands 1.08 ± 0.034.
On to UniProt Q9NSI2 and related entries, for which the NP40-soluble protein abundance worked out at 0.979 ± 0.04.
Still for that read-out and setting: next, TMOD2 (UniProt Q9NZR1): 0.9938 ± 0.0076.
On the same count and under the same terms, under UniProt Q9NS23 and related entries stands 1.01 ± 0.032; under UniProt Q9P2N6-3|Q9P2N6, 1.01 ± 0.013; under UniProt Q9NR31 and related entries, 0.972 ± 0.064.
Still for that read-out and setting: next, UniProt Q9NYM9 and related entries: 0.963 ± 0.037; FAM49B (UniProt Q9NUQ9): 0.9738 ± 0.0068.
With THYN1 (UniProt Q9P016), the NP40-soluble protein abundance came to 0.978 ± 0.022.
On to UniProt Q9UBS0, for which the NP40-soluble protein abundance came out at 1.06 ± 0.041.
The same measure, in the same setting: under PDLIM7 (UniProt Q9NR12) stands 0.978 ± 0.041.
As for HDAC6 (UniProt Q9UBN7), the NP40-soluble protein abundance stood at 1.01 ± 0.015.
Same read-out and setting: under UniProt Q9NVM4 and related entries stands 1.04 ± 0.021.
Same read-out and setting: next, UniProt Q9NT62 and related entries: 1.036 ± 0.0083; UniProt Q9NQY0 and related entries: 1.03 ± 0.014.
The same measure, in the same setting: next, UniProt Q9NW08 and related entries: 0.994 ± 0.024.
On to NHP2 (UniProt Q9NX24), for which the NP40-soluble protein abundance is 0.986 ± 0.065.
Same read-out and setting: under FASTKD2 (UniProt Q9NYY8) stands 1.01 ± 0.04; under UniProt Q9P275 and related entries, 1.02 ± 0.03; under UniProt Q9NUP9, 1.04 ± 0.022.
Still for that read-out and setting: under UniProt Q9UBF6 and related entries stands 1.01 ± 0.036; under UniProt Q9NR28 and related entries, 1.04 ± 0.016; under UniProt Q9NWU2, 1.02 ± 0.056.
Same read-out and setting: under UniProt Q9NZB8 and related entries stands 1 ± 0.021; under AATF (UniProt Q9NY61), 0.93 ± 0.02.
Take UniProt Q9NRZ7 and related entries: the NP40-soluble protein abundance was found to be 0.978 ± 0.027.
On the same count and under the same terms, next, UniProt Q9NXN4 and related entries: 1.02 ± 0.033; CHMP5 (UniProt Q9NZZ3): 0.984 ± 0.08; UniProt Q9NVH6 and related entries: 0.994 ± 0.036.
On the same count and under the same terms, under TOMM22 (UniProt Q9NS69) stands 1.02 ± 0.011.
On the same count and under the same terms, under “UniProt Q9NZ52-3|Q9NZ52-4|Q9NZ52 and related entries” stands 0.987 ± 0.023; under UniProt Q9NSC5 and related entries, 1.001 ± 0.0079.
In the case of UniProt Q9NW64, the NP40-soluble protein abundance worked out at 1.07 ± 0.087.
Turning to FBXO28 (UniProt Q9NVF7), the NP40-soluble protein abundance is 1.008 ± 0.0051.

Still in this assay, the particulars now being: concentration: 0.5mM.
On to UniProt Q9NRX2 and related entries, for which the NP40-soluble protein abundance worked out at 1 ± 0.034.
With UniProt Q9NQX3 and related entries, the NP40-soluble protein abundance was 0.989 ± 0.035.
Still for that read-out and setting: next, UniProt Q9NZQ3 and related entries: 1.02 ± 0.028.
Consider UniProt Q9NV56, for which the NP40-soluble protein abundance amounted to 1.02 ± 0.12.
The same measure, in the same setting: under DDX21 (UniProt Q9NR30) stands 1.16 ± 0.1; under UniProt Q9NSI2 and related entries, 1.02 ± 0.05.
Still for that read-out and setting: next, TMOD2 (UniProt Q9NZR1): 0.987 ± 0.071; UniProt Q9NS23 and related entries: 1.01 ± 0.013; UniProt Q9P2N6-3|Q9P2N6: 0.998 ± 0.045.
Still for that read-out and setting: next, UniProt Q9NR31 and related entries: 0.931 ± 0.16; UniProt Q9NYM9 and related entries: 0.998 ± 0.033; FAM49B (UniProt Q9NUQ9): 1.02 ± 0.029.
As for THYN1 (UniProt Q9P016), the NP40-soluble protein abundance was 1.04 ± 0.053.
On the same count and under the same terms, next, UniProt Q9UBS0: 1.07 ± 0.073; PDLIM7 (UniProt Q9NR12): 0.9729 ± 0.0066; HDAC6 (UniProt Q9UBN7): 0.995 ± 0.019.
On the same count and under the same terms, next, UniProt Q9NVM4 and related entries: 0.982 ± 0.039; UniProt Q9NT62 and related entries: 1.02 ± 0.032.
The same measure, in the same setting: next, UniProt Q9NQY0 and related entries: 1.04 ± 0.054; UniProt Q9NW08 and related entries: 0.965 ± 0.059; NHP2 (UniProt Q9NX24): 0.991 ± 0.034.
With FASTKD2 (UniProt Q9NYY8), the NP40-soluble protein abundance came out at 0.983 ± 0.046.
Turning to UniProt Q9P275 and related entries, the NP40-soluble protein abundance stood at 1.04 ± 0.05.
For UniProt Q9NUP9, the NP40-soluble protein abundance was determined as 0.992 ± 0.054.
UniProt Q9UBF6 and related entries: the NP40-soluble protein abundance was determined as 1 ± 0.03.
Same read-out and setting: next, UniProt Q9NR28 and related entries: 1.03 ± 0.079; UniProt Q9NWU2: 0.994 ± 0.033; UniProt Q9NZB8 and related entries: 0.954 ± 0.064.
On the same count and under the same terms, next, AATF (UniProt Q9NY61): 0.943 ± 0.032; UniProt Q9NRZ7 and related entries: 0.988 ± 0.032.
Still for that read-out and setting: under UniProt Q9NXN4 and related entries stands 0.979 ± 0.016; under CHMP5 (UniProt Q9NZZ3), 0.966 ± 0.097; under UniProt Q9NVH6 and related entries, 0.988 ± 0.016.
For the target TOMM22 (UniProt Q9NS69), the NP40-soluble protein abundance was 0.999 ± 0.011.
For “UniProt Q9NZ52-3|Q9NZ52-4|Q9NZ52 and related entries”, the NP40-soluble protein abundance worked out at 0.977 ± 0.024.
Still for that read-out and setting: under UniProt Q9NSC5 and related entries stands 0.986 ± 0.04; under UniProt Q9NW64, 1.07 ± 0.018; under FBXO28 (UniProt Q9NVF7), 1.01 ± 0.02.
